Out of some 320,000 compounds screened, about 2,100 (0.66%) were called active. Calls follow the shape of the dose curve; as a rule, active = well fitted inhibition curve with a large enough effect in the signal ratio, with a control signal flat (not every such curve was filed as active); inconclusive = small, poorly fitted or top-dose-only effect, or effect the other way, or a change in a side signal; inactive = flat fitted curve, though single readings scatter; the % refers to the signal ratio. Inconclusive results, whose numbers are uncertain, are shown. A potency beside an inconclusive call is a rough fit, not a confirmed value.
Experiment: qHTS Assay for Lipid Storage Modulators in Drosophila S3 Cells
Conditions: BODIPY lipid droplet fluorescence, 18-24 h, cells fed with added oleic acid; lipid storage change, negative = inhibition: at 46.1 µM (top of the series) unless noted
Procedure, shortened: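 Drosophila S3 cells loaded with oleic acid (400 uM, as added) and compounds at several concentrations; lipid droplets imaged by 488-nm laser-scanning cytometry, 500–530 nm intensity and object ratio to cell channel. Percent activity normalized to 20 uM Triacsin C.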
% is scaled to controls: 0 for no effect and ±100 for the full control effect; potency is read from the fitted curve at half-maximal effect.

Structure (SMILES)	lipid storage change, negative = inhibition	Potency
CC1CC(C)CN(CC(=O)c2cccs2)C1 (configuration not stated)	inconclusive: -31.6% [at 0.00295 µM]	–
COc1ccc(CCNC(=O)c2cc3c(F)cccc3s2)cc1OC	–	inconclusive: 25.9 µM [falling, single point]
CSCC[C@H](NS(=O)(=O)c1ccc(C)cc1)C(=O)N1CCC(C(=O)N[C@H](C(=O)O)c2ccccc2)CC1	–	inconclusive: 16.4 µM [activator, single point]
COC(=O)c1c(CSc2ccc(C)c(C)c2)noc1C(=O)NCc1ccc(OC)cc1	–	inconclusive: 29.1 µM [falling, single point]
Cc1ccc(SCCC(=O)OCn2nnc3ccccc3c2=O)cc1	inconclusive: 44.9%	–
COC(=O)c1ccc(/C=N/OCC(=O)NCCc2ccc(OC)c(OC)c2)cc1	inconclusive: -10%	–
Cc1cc(=O)n(Cc2ccccc2)c(O)c1C#N	–	inconclusive: 6.51 µM [activator, single point]
CCOC(=O)C(C)n1cnc2c(nnn2Cc2ccc(Cl)cc2)c1=O (configuration not stated)	inconclusive: 31.4%	–
C=C(C)CCC(C)N1CCC(n2nccc2NC(=O)CCCc2ccccc2)CC1 (configuration not stated)	inconclusive: -15.2%	–
Cc1cc(C)cc(-c2nnc(SCC(=O)c3c(N)n(C4CC4)c(=O)[nH]c3=O)o2)c1	inconclusive	–
CC1(c2ccccc2)NC(=O)N(CC(=O)Nc2cc(S(=O)(=O)N3CCOCC3)ccc2Cl)C1=O (configuration not stated)	inconclusive: 21.8%	–
CCOC(=O)N1CCN(C(=O)CN(C2CCCCC2)S(=O)(=O)c2ccc(F)cc2)CC1	–	inconclusive: 2.91 µM [activator, partial curve, poor fit]
C=CCC1C=C(Cc2ccccc2)CC(CC=C)N1 (configuration not stated)	inconclusive: 26.8%	–
COc1ccc(C(=O)Oc2ccc3oc(=O)sc3c2)cc1	–	inconclusive: 25.9 µM [falling, partial curve, poor fit]
CC1(C)C(C=C(Cl)Cl)C1C(=O)N1CCN(Cc2ccccc2)CC1 (configuration not stated)	inconclusive: -37% [cytotoxic] [at 0.369 µM]	–
COc1cccc(C(=O)NCCS(=O)(=O)N2CCOCC2)c1	inconclusive: -2.45%	–
CN(C)c1ccc(/C=N/NC(=O)c2cc(=O)[nH]c3ccccc23)cc1	–	inconclusive: 6.51 µM [falling, single point]
COc1ccc(-c2c(C(F)(F)F)nn(C)c2NC(=O)c2ccco2)cc1	inconclusive: 28.3%	–
Cn1c(=O)[nH]c(=O)c2c1nc(SCCN1CCOCC1)n2Cc1ccccc1	inconclusive: -13.9%	–
CCc1ccc(Nc2n[n+](-c3ccccc3)c(-c3ccc(C(=O)O)cc3)s2)cc1	inconclusive: -39.1%	–
CC(=O)Nc1nc2c(c3c1c(=O)oc1ccccc13)CC(C)CC2 (configuration not stated)	inconclusive: 10.4%	–
CCc1ccc(NC(=O)C(=O)N/N=C(\C)CC(=O)NCc2ccc(Cl)cc2)cc1	inconclusive: 0.197%	–
CCN1C(=O)CC(C(=O)NC)SC1=Nc1cc(Cl)c(O)c(Cl)c1 (configuration not stated)	inconclusive: -35.6%	–
Oc1ccc(-c2cc(-c3ccc(O)cc3)nc(-c3ccccc3)n2)cc1	–	inconclusive: 29.1 µM [cytotoxic, single point]

Structure (SMILES)	lipid storage change, negative = inhibition	Potency
COc1ccc(Cc2nc3ccc(C(=O)N4CCOCC4)cc3o2)cc1	inconclusive: 0.149%	–
C=CCN1C(=O)/C(=C2/Sc3ccc(OC)cc3N2C)SC1=Nc1ccc(OC)cc1	inconclusive: 23.3%	–
COc1cc(/C=C/C(=O)c2ccc3c(c2)OCO3)cc(OC)c1OC	inconclusive: 24%	–
CCOC(=O)N1CCC2(CC1)C(C(=O)C13CC4CC(CC(C4)C1)C3)C2(C#N)C#N (configuration not stated)	–	inconclusive: 4.11 µM [falling, single point]
Cc1cnc([N+](=O)[O-])n1CCOC(=O)NC(=O)c1ccc(C(F)(F)F)cc1	inconclusive: -36.3%	–
COC(=O)c1cn(C)c2ccc(S(=O)(=O)N3CCCC3)cc2c1=O	inconclusive: 155%	–
CCOc1ccc(NC(=S)Nc2ccc(OCC)cc2)cc1	–	inconclusive: 0.103 µM [falling, full curve]
CC1=CCCC(C)(C)C1/C=C/C(C)=N/NC(=O)c1ccncc1 (configuration not stated)	inconclusive: -34.6%	–
O=C(Nc1ccc(F)cc1)c1cc(S(=O)(=O)N2CCCCC2)cs1	–	inconclusive: 6.51 µM [activator, partial curve, poor fit]
CCOC(=O)N1CCN(C(=O)c2ccc(NS(C)(=O)=O)cc2)CC1	–	inconclusive: 29.1 µM [cytotoxic, single point]
O=C(NCc1ccccc1Cl)c1ccc2nnsc2c1	inconclusive: 14%	–
CCN(CC(=O)Nc1c(F)cccc1F)C(=O)c1cc(S(=O)(=O)N(C)C)ccc1N1CCCC1	inconclusive: 22.8%	–
CC(C)(C)c1ccc(C(=O)NCCCN2CCN(CCCNC(=O)c3ccc(C(C)(C)C)cc3)CC2)cc1	–	inconclusive: 29.1 µM [cytotoxic, single point]
Cn1c(=O)c(C(=O)COC(=O)c2cc(C(F)(F)F)nc3c(C(F)(F)F)cccc23)c(N)n(CC2CC2)c1=O	–	inconclusive: 6.51 µM [cytotoxic, single point]
COc1cccc(-c2nn(-c3ccc(C)cc3)cc2C(=O)N2CCN(C3CCS(=O)(=O)C3)CC2)c1 (configuration not stated)	–	inconclusive: 6.51 µM [falling, single point]
COc1cc(OC)cc(-c2sc3ccc(OC)cc3c2C#CC(C)(C)O)c1	–	inconclusive: 0.13 µM [activator, single point]
N#Cc1nc(COc2ccccc2)oc1N1CCN(Cc2ccccc2)CC1	–	inconclusive: 6.51 µM [activator, single point]
Cc1ccc(CSc2nnc(SCC(=O)N/N=C/c3c(C)nn(-c4ccccc4)c3C)s2)cc1	inconclusive: -29.6%	–
Cc1ccc(NC(=O)CSc2nc(=O)n(CCN(C)C)c3c2CCCC3)cc1Cl	inconclusive	–
CCOC(=O)c1c(NC(=O)CCS(=O)(=O)c2ccccc2)sc2c1CCN(C)C2	–	inconclusive: 6.51 µM [falling, single point]
CCOc1cc(/C=C/C(=O)OCC(=O)NCCN2C(=O)CSC2=O)ccc1OCC(C)C	inconclusive: -52.9%	–
C=CCOc1ccc(CNCc2cccnc2)cc1	inconclusive: -23.7%	–
Cc1ccc(S(=O)(=O)NNC(=S)NC(C)(C)C)cc1	inconclusive: -16%	–
Cc1cc(C(=O)NCCC2=CCCCC2)no1	–	inconclusive: 29.1 µM [falling, single point]

Structure (SMILES)	lipid storage change, negative = inhibition	Potency
O=C(CCSc1nc(-c2ccco2)cc(C(F)(F)F)n1)NCc1ccccn1	inconclusive: 151%	–
CCOC(=O)CC1ON(C)C(=O)N1c1ccc(Cl)cc1Cl (configuration not stated)	inconclusive: 10.8%	–
CS(=O)(=O)N(CC(=O)NC1CCCC1)c1cccc(F)c1	inconclusive: -8.36%	–
COCc1ccc(C(=O)OC(C)C(=O)Nc2c(C)n(C)n(-c3ccccc3)c2=O)cc1 (configuration not stated)	–	inconclusive: 0.82 µM [activator, full curve]
COc1cc(C(=O)N2CCN=C2c2ccccc2)cc(OC)c1OC	inconclusive: 7.22%	–
c1ccc(Cc2nc3ccccc3o2)cc1	inconclusive: -22.9%	–
COc1ccc(OC)c2[nH]c(C(=O)N3CCC(C(=O)O)CC3)cc12	inconclusive: 69%	–
COc1ccc(OC)c(S(=O)(=O)Nc2ccc3c(c2)n(C)c(=O)n3C)c1	–	inconclusive: 1.16 µM [activator, single point]
CC(=O)Nc1cccc(NC(=O)c2ccc(Br)cc2)c1	inconclusive: 14.2%	–
O=C(COc1ccc(-c2ccccc2)cc1)N/N=C/c1cc(O)ccc1Br	inconclusive: -20%	–
CC(=O)NC1(c2ccccc2)CCN(CC(=O)N2CCC(C)CC2)CC1	inconclusive: 34.6%	–
O=C(COc1cccnc1[N+](=O)[O-])NCCc1ccc(Cl)cc1Cl	inconclusive: -28%	–
Cc1cccn2c(=O)c(/C=N/O)c(N3CCOCC3)nc12	inconclusive: 2.41%	–
COc1ccc(OC)c(/C=C/C(=O)c2ccc3c(c2)OCO3)c1	–	inconclusive: 18.4 µM [falling, single point]
Cc1ccc(NC2(C(F)(F)F)N=C(c3ccccc3)NC2=O)nc1 (configuration not stated)	–	inconclusive: 5.17 µM [falling, partial curve, poor fit]
Cc1onc(-c2c(F)cccc2Cl)c1C(=O)NCC1COc2ccccc2O1 (configuration not stated)	inconclusive: 35%	–
Cc1sc2ncn(CC(=O)N3CCC(C(N)=O)CC3)c(=O)c2c1S(=O)(=O)N1CC(C)CC(C)C1 (configuration not stated)	inconclusive: -7.6%	–
COc1ccc(Nc2nc3c(c(=O)n(C)c(=O)n3C)n2CCO)cc1	inconclusive: 24.3%	–
Cc1ccc(NC(=O)CN2C(=O)S/C(=C\c3cccn3-c3cccc(C(=O)O)c3)C2=O)c(C)c1	–	inconclusive: 29.1 µM [falling, single point]
COc1ccccc1NS(=O)(=O)c1ccc(C(=O)NCCCN2CCOCC2)cc1	inconclusive	–
Cc1ccc(N2C(=O)Nc3cc(Cl)c(Cl)cc3N2O)cc1Cl	inconclusive: -0.438%	–
Cn1c2c(c(=O)[nH]c1=O)C(NC(=O)c1ccco1)(C(F)(F)F)C(=O)N2 (configuration not stated)	–	inconclusive: 29.1 µM [cytotoxic, single point]
CCN(CC)C(=O)Cn1cc(S(=O)(=O)CC(=O)Nc2ccc(OC)c(OC)c2)c2ccccc21	inconclusive: 36.1%	–
CCOC(=O)c1c(NC(=O)CSc2nnc(-c3ccccc3)n2CC)sc(C(C)=O)c1C	–	inconclusive: 1.64 µM [activator, full curve]

A few values from the entries so far.
O=C(COc1ccc(-c2ccccc2)cc1)N/N=C/c1cc(O)ccc1Br | lipid storage change, negative = inhibition: inconclusive: -20%
COc1ccc(OC)c(S(=O)(=O)Nc2ccc3c(c2)n(C)c(=O)n3C)c1 | Potency: inconclusive: 1.16 µM [activator, single point]
CC(=O)Nc1cccc(NC(=O)c2ccc(Br)cc2)c1 | lipid storage change, negative = inhibition: inconclusive: 14.2%

Single records, from the list above. Values in the order: lipid storage change, negative = inhibition	Potency
CC1=CCCC(C)(C)C1/C=C/C(C)=N/NC(=O)c1ccncc1 (configuration not stated) in the list: inconclusive: -34.6%	–
CCN(CC(=O)Nc1c(F)cccc1F)C(=O)c1cc(S(=O)(=O)N(C)C)ccc1N1CCCC1 in the list: inconclusive: 22.8%	–
COc1ccc(Nc2nc3c(c(=O)n(C)c(=O)n3C)n2CCO)cc1 in the list: inconclusive: 24.3%	–

From PubChem BioAssay AID2685 (National Center for Advancing Translational Sciences (NCATS), 2010)
